These are yes or no findings as the source states them, for the method shown. Binding seen in cells or lysates may run through a third protein. A yes stands for co-enrichment or nearness to the bait. Other partners may have been found.
Biological target: BioID2-KRas4B (with an N-terminal OLLAS tag) (UniProt P01116)
Experiment: proximity labelling; OLLAS-BioID2 constructs transfected into 293 cells, biotin (down to 0.1 µM), streptavidin pulldown, western blot

Substance: endogenous merlin of 293 cells (from UniProt P35240 1-595)
- binding: binds

— PMC6756068
